Laboratory results from patent US20180073026.

By UniProt entry, the sequences of proteins in these tests, tags left out. Where a name states a change or a piece, a line headed by the entry shows the natural chain unless it says otherwise.
UniProt P00573: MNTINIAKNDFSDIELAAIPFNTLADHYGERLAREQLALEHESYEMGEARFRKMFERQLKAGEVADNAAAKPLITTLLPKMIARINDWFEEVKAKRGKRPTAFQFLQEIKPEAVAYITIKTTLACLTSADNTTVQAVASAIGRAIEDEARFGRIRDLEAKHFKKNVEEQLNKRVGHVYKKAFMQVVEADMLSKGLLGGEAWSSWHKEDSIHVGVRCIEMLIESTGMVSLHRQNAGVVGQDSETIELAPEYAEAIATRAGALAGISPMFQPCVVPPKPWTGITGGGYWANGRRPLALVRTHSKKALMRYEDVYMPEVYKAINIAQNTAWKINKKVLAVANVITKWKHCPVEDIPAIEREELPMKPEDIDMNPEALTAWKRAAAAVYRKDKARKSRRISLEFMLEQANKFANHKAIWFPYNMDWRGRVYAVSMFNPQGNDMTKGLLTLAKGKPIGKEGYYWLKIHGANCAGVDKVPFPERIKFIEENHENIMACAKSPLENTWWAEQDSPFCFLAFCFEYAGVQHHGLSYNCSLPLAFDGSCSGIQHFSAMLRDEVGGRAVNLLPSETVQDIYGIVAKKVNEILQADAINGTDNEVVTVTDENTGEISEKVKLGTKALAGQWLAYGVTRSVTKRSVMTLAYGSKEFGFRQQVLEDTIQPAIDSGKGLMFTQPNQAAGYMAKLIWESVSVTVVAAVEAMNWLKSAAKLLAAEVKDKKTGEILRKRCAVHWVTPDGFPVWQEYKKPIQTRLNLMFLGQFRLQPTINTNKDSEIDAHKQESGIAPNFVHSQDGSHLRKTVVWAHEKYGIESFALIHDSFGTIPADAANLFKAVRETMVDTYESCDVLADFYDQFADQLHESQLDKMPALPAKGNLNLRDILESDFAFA

Key:
[1] = system: RNA polymerase (His6 RNAP + holoenzyme) (Escherichia coli); test: activity assay; conditions: purified recombinant protein, protein details: His6 (Nudler Lab) or holoenzyme from Affymetrix, dose not given here
[2] = system: RNA polymerase holoenzyme (core + sigma70) (Escherichia coli); test: activity in cells; conditions: protein in cells, protein details: endogenous, tested in E. coli reporter strains, dose not given here
RNA polymerase II = test: SELEX; conditions: selected with yeast/human RNAP II; purified native protein
[3] = molecular target: T7 RNA polymerase (Bacteriophage T7) (UniProt P00573); test: activity in cells; conditions: T7 RNAP specificity control, no up-regulation; protein in cells; protein details: expressed in BL21(DE3)pLysS; dose not given here

| Sequence | selection result (RNA polymerase II) | also measured |
| --- | --- | --- |
| GUCACAAUCAUCCCUAAUAAUGUUCCUCCGCAUCGUCCC [RAP #15] |  | functional effect of the aptamer ([1]; in vitro transcription: RNAP pausing, Rho-dependent termination enhanced by NusG): active; functional effect of the aptamer ([2]; inhibiting, Rho-dependent, abolished by bicyclomycin): active |
| CCACUUCACCAUCGAUCCUUCCCGCAUUAAACAACAUGUCCGUUUU [RAP #2136] |  | functional effect of the aptamer ([1]; in vitro transcription, Rho-dependent termination): active; functional effect of the aptamer ([2]; inhibiting): active |
| GAGCAUACGUAGUUGUAGUUUUCAUUUUGAUGGCUUAACCUUCUUUGUCAGC [yh45] | selected |  |
| GAGCAUAUUGGACAGGUUGUACUUGAUUAGAAAACACAAUCAUGCGGUAAUAUUAAGCCAUACUCAACAGCGCCAUCC [yh44] | selected |  |
| GAGUCCCACACACACACCACACCACC [yh36] | selected |  |
| GCAGCGUUAGUACAUACCCUUCCUCACCAUUGUUCCCCCAUCC [yh34] | selected |  |
| GCAGCACUCACUUACACAUUCACACACACAACAUACACCCC [yh33] | selected |  |
| GGGAAUUCGGAGCGGGAUCGGUUGCAUUAGCUAAGCCUGAGAAGGUGAUGUUGUUGCC [yh8] | selected |  |
| ACGGCCACCAGACUCAUUCCUGCC [yh31] | selected |  |
| AACUUCAAAAAAAAUUACAAAAAGUGCUUUCUGAACUGAACAAAAAAGAGUAAAGUUAGUCGCGUAAAGUACAUCU [yh3] | selected |  |
| GAGCUAAGACACAGAUACCCAGAAAGAUCCAAACCUCUACCGCAAAGUCAAGGUAGACAUUUCCC [yh35] | selected |  |
| UACCGUGACGUGCCAUCCAGUCCAUUUCGCCGUGGUAUUGU [RAP #14908] |  | functional effect of the aptamer ([2]; GFP transcript vs no RAP): > 1.5 fold; functional effect of the aptamer [3]: not active |
| GAGGCACACACUCACACACCCC [yh7] | selected |  |
| GCAGCAUAUCAGCCAUGUACAUCCCUGUCCCCC [yh22] | selected |  |
| AAGCACUAAAGGCCCAUUCUUGCUCUAUGUAUCUGUGACUUAAGAUCUGCCAC [yh30] | selected |  |
| GAGCAAAUCAGGCAGUCCUUACCCACUCCCCUCCCUG [yh2] | selected |  |
| GCAGCUUAAACUGCCUGACCGGUAAGAAACUGACCAACAUGCGUGCUUCCGGUACUGACGAAGCCUUCAUCC [yh18] | selected |  |

Construct, isoform or probe ends are uncertain for at least one entry. For some assays here: Negatives hold for the conditions tested.
